According to article PMC12670160, “A drug-repurposing screen of FDA- and EMA-approved drugs identifies two NF-κB inhibitors active against eumycetoma” (Journal of Antimicrobial Chemotherapy, 2025):
Counter-ions that a name gives are not always drawn. Hit rate of the full screen: of about 5,300 compounds, about 130 (2.5%) showed an effect of 50% or more. This is one part of the list. Peptide text beside a SMILES is read from it.

Test system: M. mycetomatis strain mm55
Settings: primary screen, metabolic activity vs growth control; 96 h, 2 µM; inhibitor

SMILES	% viability
C/C=C(\C)C(=O)O[C@H]1[C@H](OC(C)=O)[C@@]2(CO)C(CC1(C)C)C1=CCC3[C@@]4(C)CCC(O[C@@H]5O[C@H](C(=O)O)[C@@H](O[C@@H]6O[C@H](CO)[C@@H](O)[C@H](O)[C@H]6O)[C@H](O)[C@H]5O[C@@H]5O[C@H](CO)[C@@H](O)[C@H](O)[C@H]5O)[C@](C)(CO)C4CC[C@@]3(C)[C@]1(C)C[C@H]2O (stereo partly drawn) [ONC0002310, escin]	67.54%
Cc1ccc(NC2=CC(=O)c3sc(C)nc3C2=O)cc1 [ONC0003545, ryuvidine]	94.75%
COc1ccc2[nH]c([S+]([O-])Cc3ncc(C)c(OC)c3C)nc2c1 (stereo not drawn) [ONC0004073, omeprazole]	121.3%
CCS(=O)(=O)Nc1ccc2c(c1)/C(=C(/Nc1ccc(CN3CCCCC3)cc1)c1ccccc1)C(=O)N2 [ONC0000287, hesperadin]	53.58%
CC1(C)OC[C@H](NC(=O)Nc2ccc(Br)cc2Br)[C@H](c2ccccc2)O1 [ONC0000012, jnj10397049]	107.6%
O=C(NC(Cc1c[nH]c2ccccc12)C(=O)O)c1ccc(Cl)cc1 (stereo not drawn) [ONC0003778, benzotript]	95.54%
OC(CCN1CCCCC1)(c1ccccc1)C1CCCCC1 (stereo not drawn) [ONC0003172, trihexyphenidyl hydrochloride]	87.25%
Cc1ccc(O)c(/N=N/c2ccccc2)n1 [ONC0000857, sib1757]	82.32%
NC(Cc1ccc(O)cc1)C(=O)O (stereo not drawn) [ONC0003385, dltyrosine]	63.01%
N=C(N)N/N=C/c1c(Cl)cccc1Cl [ONC0000441, guanabenz acetate]	88%
N#Cc1cc(F)cc(-c2nc(-c3ccc(F)cn3)no2)c1 [ONC0001408, azd9272]	138.3%
N[C@@H](Cc1ccc(O)cc1)C(=O)NCC(=O)NCC(=O)O [ONC0003693, ltyrosylglycylglycine] (H-Tyr-Gly-Gly-OH)	81.53%
Cc1ccc2c(Cl)cc(Cl)c(O)c2n1 [ONC0003292, chlorquinaldol]	83.81%
OC[C@H]1NC[C@@H](O)[C@@H](O)[C@@H]1O [ONC0001492, 1deoxymannojirimycin]	81.25%
COc1ccc(/C=C2\CCCN=C2c2cccnc2)c(OC)c1 [ONC0001889, gts21]	72.7%
CCCc1nc(C(C)(C)O)c(C(=O)O)n1Cc1ccc(-c2ccccc2-c2nnn[nH]2)cc1 [ONC0001256, olmesartan]	65.5%
COc1ccc(C[C@H](C)NC[C@@H](O)c2ccc(O)c(NC=O)c2)cc1 [ONC0001548, formoterol]	81.88%
N[C@@H](CC(=O)NO)C(=O)O [ONC0005577, lasparaginenhydroxy]	46.79%
COc1nc(C)nc(Cl)c1N=C1NCCN1 [ONC0003528, moxonidine]	108%
CN(C)CCOC(=O)COc1ccc(Cl)cc1 [ONC0003119, meclofenoxate hydrochloride]	70.61%

3 entries from above, sorted by molecular weight, high to low:
SMILES	% viability
CCS(=O)(=O)Nc1ccc2c(c1)/C(=C(/Nc1ccc(CN3CCCCC3)cc1)c1ccccc1)C(=O)N2 [ONC0000287, hesperadin]	53.58%
COc1nc(C)nc(Cl)c1N=C1NCCN1 [ONC0003528, moxonidine]	108%
NC(Cc1ccc(O)cc1)C(=O)O (stereo not drawn) [ONC0003385, dltyrosine]	63.01%

Continued:

SMILES	% viability
Brc1c(NC2=NCCN2)ccc2nccnc12 [ONC0003077, brimonidine]	64.39%
CC/C=C\C/C=C\C/C=C/C/C=C\C/C=C\C/C=C\CCC(=O)OCC [ONC0002811]	151.6%
C[C@H](Oc1cc(-c2cnn(C3CCNCC3)c2)cnc1N)c1c(Cl)ccc(F)c1Cl [ONC0005182, scrizotinib]	102.4%
CC[C@H]1[C@@H](O)[C@@H]2[C@H](CC[C@]3(C)[C@@H]([C@H](C)CCOS(=O)(=O)O)CC[C@@H]23)[C@@]2(C)CC[C@@H](O)C[C@@H]12 [ONC0001140, int767]	81.25%
COC(=O)C(N)CS (stereo not drawn) [ONC0003811, mecysteine hydrochloride]	98.34%
CC(N)C12CC3CC(CC(C3)C1)C2 (stereo not drawn) [ONC0003913, rimantadine hydrochloride]	69.15%
CCOC(=O)c1c(C)n(C)c2ccc(O)cc12 [ONC0004780, mecarbinate]	73.77%
Nc1cc(-c2ccncc2)c[nH]c1=O [ONC0002877, inamrinone]	98.79%
c1ccc2c(c1)CCCc1cc(NCCN3CCOCC3)nnc1-2 [ONC0002371, sr95639a]	88.18%
CCC(=O)NC[C@H](Cc1ccc(OCCc2nc(-c3ccccc3)oc2C)cc1)N/C(C)=C\C(=O)c1ccc(C(F)(F)F)cc1 [ONC0001652, gw6471]	62.72%
Fc1cc(-c2cccc3ncc(-c4cnn(C5CCNCC5)c4)nc23)cc(F)c1CN1CCOCC1 [ONC0005097, nvpbsk805 2hcl]	105.3%
C=C[C@@H]1C[C@]1(NC(=O)[C@@H]1C[C@@H](Oc2ncc(OC)c3ccc(Cl)cc23)CN1C(=O)[C@@H](NC(=O)OC(C)(C)C)C(C)(C)C)C(=O)NS(=O)(=O)C1CC1 [ONC0000817, asunaprevir]	83.06%
Nc1nncs1 [ONC0005612, aminothiadiazole]	142.1%
CN(CCOc1ccc(CC2SC(=O)NC2=O)cc1)c1ccccn1 (stereo not drawn) [ONC0004226, rosiglitazone maleate]	84.91%
c1ccc2nc(C3=NCCN3)cnc2c1 [ONC0003136, bu239]	58.56%
CN(C)CC[C@@H](c1ccc(Cl)cc1)c1ccccn1 [ONC0000351, dexchlorpheniramine maleate]	73.73%
CC(=O)OCC(=O)[C@@]1(O)CCC2C3CCC4=CC(=O)CC[C@]4(C)C3[C@@H](O)C[C@@]21C (stereo partly drawn) [ONC0000452, hydrocortisone acetate]	83.81%
C=C1CCC2(O)C3Cc4ccc(O)c5c4C2(CCN3CC2CC2)C1O5 (stereo not drawn) [ONC0004788, nalmefene hydrochloride]	133.8%
O=C(NCC(=O)N1CCCC1)Nc1ccc2cnccc2c1 [ONC0002723, sgc707]	66.38%
